Assay results: article PMC10721806
These are yes or no findings as the source states them, for the method shown. In cells and extracts the contact can be indirect. Some entries that bind do so weakly or less than the wild type.

Protein sequences, listed by entry. Tags and fused reporters are not part of them. Residues count along the entry.
UniProt P41738, residues 10-853: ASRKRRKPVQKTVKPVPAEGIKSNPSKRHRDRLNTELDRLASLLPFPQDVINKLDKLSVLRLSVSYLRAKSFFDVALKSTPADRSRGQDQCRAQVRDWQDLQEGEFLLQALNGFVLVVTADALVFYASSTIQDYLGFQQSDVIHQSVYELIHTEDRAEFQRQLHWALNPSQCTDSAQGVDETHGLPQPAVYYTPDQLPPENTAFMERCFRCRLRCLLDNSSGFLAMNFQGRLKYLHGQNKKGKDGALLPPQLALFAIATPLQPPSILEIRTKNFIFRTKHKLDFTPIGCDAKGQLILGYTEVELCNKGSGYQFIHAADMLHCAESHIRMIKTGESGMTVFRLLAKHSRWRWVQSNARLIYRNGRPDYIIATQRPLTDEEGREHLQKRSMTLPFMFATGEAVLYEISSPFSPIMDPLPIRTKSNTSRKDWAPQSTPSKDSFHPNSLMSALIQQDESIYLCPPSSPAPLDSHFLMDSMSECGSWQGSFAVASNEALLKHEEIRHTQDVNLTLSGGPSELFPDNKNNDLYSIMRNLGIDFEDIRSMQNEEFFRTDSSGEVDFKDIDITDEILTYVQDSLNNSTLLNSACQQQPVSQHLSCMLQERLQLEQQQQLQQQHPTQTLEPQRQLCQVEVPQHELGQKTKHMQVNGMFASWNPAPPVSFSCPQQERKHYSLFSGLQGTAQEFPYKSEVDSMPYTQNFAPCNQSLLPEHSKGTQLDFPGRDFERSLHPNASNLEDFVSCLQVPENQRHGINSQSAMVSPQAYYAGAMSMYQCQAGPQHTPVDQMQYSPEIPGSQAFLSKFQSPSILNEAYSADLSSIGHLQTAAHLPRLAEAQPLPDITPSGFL
UniProt Q6DGG0: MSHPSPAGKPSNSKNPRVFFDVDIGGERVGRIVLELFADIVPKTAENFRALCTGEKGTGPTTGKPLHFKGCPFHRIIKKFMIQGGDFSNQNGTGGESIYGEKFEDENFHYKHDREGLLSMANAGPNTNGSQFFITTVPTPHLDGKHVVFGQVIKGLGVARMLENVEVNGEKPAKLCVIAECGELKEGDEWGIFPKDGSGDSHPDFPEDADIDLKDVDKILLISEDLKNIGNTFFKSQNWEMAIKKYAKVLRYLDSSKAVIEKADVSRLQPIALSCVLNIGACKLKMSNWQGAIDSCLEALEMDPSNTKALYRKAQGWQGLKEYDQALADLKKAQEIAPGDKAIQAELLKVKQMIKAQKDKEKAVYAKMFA

Target: aryl hydrocarbon receptor (AhR) (rat (endogenous in osteoclasts from SD rat BMMCs)) (UniProt P41738)
Assay: co-IP; lysate (IP lysis buffer) of osteoclasts cocultured with sensory neurons transfected with EGFP-tagged Cyp40; antibodies against AhR and GFP with Protein A or Protein G magnetic beads, 4 °C overnight; immunoblotting

In the case of “EGFP-tagged peptidyl-prolyl cis-trans isomerase D (Cyp40) (from UniProt Q6DGG0 1-370)”, the binding is reported as “binds”.
